Experimental data: PubChem BioAssay (EPA / NIEHS)
This list was built around the results that the source calls inconclusive (neither active nor inactive); the mix of calls is not that of the screen. Potencies of inconclusive entries are doubtful fits and often do not repeat. Calls of active or inactive are those of the source. Rule for the calls: active = hit-call score of the fitted dose curve at least 0.9, where 1 is the maximum; inconclusive = response in the unintended direction; inactive = score below 0.9.

Assay: Tanguay_ZF_120hpf_CFIN_legacy: (Legacy) Oregon State University Tanguay Lab 120 Hour Post-fertilization zebrafish Assay for Caudal Fin Malformation (AID 2283649)
How it was run: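 Binary brightfield scoring of caudal fin defects at 120 hpf after static, light-shielded exposure at 28C from 6 hpf. Tropical 5D embryos, chorion removed with pronase at 4 hpf, final DMSO 0.64%.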
In the case of `Oc1ccc(O)cc1`, the AC50 is reported as inconclusive: 2.77 µM.
In the case of `O=C(O)c1ccccc1`, the AC50 is reported as inconclusive: 54.4 µM.
For `Cc1nccn1-c1ccc(Sc2cccc(C3(C(N)=O)CCOCC3)c2)cc1`, the AC50 was inconclusive: 139 µM.
For `CCCC(=O)OCCC(C)C`, the AC50 was inconclusive: 41.1 µM.
With `CC[C@H](c1ccc(O)cc1)[C@@H](CC)c1ccc(O)cc1` the outcome was “inactive”.
With `O=c1c(-c2ccc(O)cc2)coc2cc(O)ccc12` the AC50 was inconclusive: 28.9 µM.
For `O=C(O)Cn1c(=O)n(Cc2ccc(Br)cc2F)c(=O)c2ccc(Cl)cc21`, the outcome was “inactive”.
In the case of `CCCCCCOCCO`, the AC50 is reported as inconclusive: 69 µM.
For `COc1cccc(-c2ccc(/C=C\CN3CCCCCC3)cc2Cl)c1`, the AC50 was inconclusive: 6.29 µM.
For `Cc1c2ccccc2c(C)c2c1ccc1ccccc12`, the AC50 was active: 25.8 µM.

Assay: Tanguay_ZF_120hpf_PIG_legacy: (Legacy) Oregon State University Tanguay Lab 120 Hour Post-fertilization zebrafish Assay for Pigmentation Malformation (AID 2283650)
How it was run: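 Tropical 5D wild-type zebrafish embryos, dechorionated with pronase at 4 hpf, were exposed singly from 6 hpf to 120 hpf statically at 28C in sealed, dark plates with 0.64% DMSO; pigmentation scored present/absent by brightfield microscopy, fitted against DMSO.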
With `CCCC(=O)OCC` the outcome was “inactive”.
In the case of `CCCCOC(=O)[C@@H](C)Oc1ccc(Oc2ccc(C(F)(F)F)cn2)cc1`, the AC50 is reported as inconclusive: 203 µM.
For `CCc1nc(N)nc(N)c1-c1ccc(Cl)cc1`, the outcome was “inactive”.
In the case of `CCC(C)(C)C1CCC(O)CC1` (configuration not stated), the outcome is reported as “inactive”.
In the case of `Cc1c(C)c2c(c(C)c1O)CCC(C)(COc1ccc(CC3SC(=O)NC3=O)cc1)O2` (configuration not stated), the outcome is reported as “inactive”.
In the case of `CC1(C)C(C=C(Cl)Cl)C1C(=O)OCc1cccc(Oc2ccccc2)c1` (configuration not stated), the AC50 is reported as inconclusive: 16.2 µM.
With `Clc1cc(Cl)c2c(c1)N=C1CCCCCN1C2` the outcome was “inactive”.
For `C[C@]12CC[C@@H]3c4ccc(O)cc4CC[C@H]3[C@@H]1CC[C@H]2O`, the outcome was “inactive”.
For `CCCCCCOCCO`, the AC50 was inconclusive: 21.1 µM.
For `C1CNCCN1`, the outcome was “inactive”.
In the case of `CN(C[C@@H](CC[N+]12CCC(C3CCCCC3)(CC1)CC2)c1ccc(Cl)c(Cl)c1)C(=O)c1cc(C(F)(F)F)cc(C(F)(F)F)c1`, the AC50 is reported as inconclusive: 7.5 µM.

Assay: Tanguay_ZF_120hpf_CIRC_legacy: (Legacy) Oregon State University Tanguay Lab 120 Hour Post-fertilization zebrafish Assay for Circulatory Malformation (AID 2283651)
How it was run: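 Read-out: presence or absence of circulatory malformation at 120 hpf, scored by brightfield microscopy, fitted in the gain-of-signal direction against DMSO baseline. Wild-type 5D larvae were exposed from 6 hpf after enzymatic chorion removal.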
For `Oc1ccc(O)cc1`, the AC50 was inconclusive: 6.64 µM.
In the case of `O=C(O)c1ccccc1`, the outcome is reported as “inactive”.
For `Cc1ccc(N)cc1O`, the outcome was “inactive”.
With `CCCCOC(=O)[C@@H](C)Oc1ccc(Oc2ccc(C(F)(F)F)cn2)cc1` the AC50 was inconclusive: 100 µM.
With `C[C@]12C=CC(=O)C=C1CC[C@H]1[C@@H]3C[C@@H](O)[C@](O)(C(=O)CO)[C@@]3(C)C[C@H](O)[C@@]12F` the AC50 was inconclusive: 7.77 µM.
With `CCCCCCCCCCCCCCCCCC(=O)O` the AC50 was inconclusive: 43.6 µM.
In the case of `CCCCCCC(CCCCCCCCCCC(=O)OCC(COC(C)=O)OC(C)=O)OC(C)=O` (configuration not stated), the AC50 is reported as inconclusive: 15.6 µM.
With `CCC(C)(C)C1CCC(O)CC1` (configuration not stated) the AC50 was inconclusive: 202 µM.
With `CCOC(=O)O[C@H](C)OC(=O)c1ccc2c(c1)cc(C(=O)NC1CCN(C(C)C)CC1)n2Cc1cc(-c2ccc(Cl)s2)on1` the outcome was “inactive”.
In the case of `CC1(C)C(C=C(Cl)Cl)C1C(=O)OCc1cccc(Oc2ccccc2)c1` (configuration not stated), the AC50 is reported as inconclusive: 7.42 µM.
For `CCN(Cc1cccnc1)C(=O)c1cccc(Cl)c1[C@]1(C)C(=O)N(Cc2ccc(OC)cc2OC)c2ccc(Cl)cc21`, the AC50 was inconclusive: 2.41 µM.
With `C[C@]12CC[C@@H]3c4ccc(O)cc4CC[C@H]3[C@@H]1CC[C@H]2O` the outcome was “inactive”.
In the case of `COc1cccc(-c2ccc(/C=C\CN3CCCCCC3)cc2Cl)c1`, the AC50 is reported as inconclusive: 2.64 µM.
With `CS(=O)(=O)OCCCCOS(C)(=O)=O` the AC50 was inconclusive: 26.4 µM.
With `CC(C)(C)c1cc(/C=C2\SC(N)=NC2=O)cc(C(C)(C)C)c1O` the AC50 was inconclusive: 44.5 µM.

Assay: Tanguay_ZF_120hpf_SWIM_legacy: (Legacy) Oregon State University Tanguay Lab 120 Hour Post-fertilization zebrafish Assay for Swim Bladder Malformation (AID 2283654);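 note: swim bladder malformation in each larva scored yes or no under brightfield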
How it was run: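 Dechorionated Tropical 5D wild-type embryos, placed singly from 6 hpf, were statically exposed at 28C to 120 hpf with 0.64% DMSO final; swim bladder malformation was scored present/absent by brightfield microscopy, gain of signal relative to DMSO controls.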
In the case of `Oc1ccc(O)cc1`, the AC50 is reported as inconclusive: 2.7 µM.
With `CCCCCCCC(=O)OC` the outcome was “inactive”.
For `O=c1[nH]c2ccc(S(=O)CCN3CCC(Cc4ccc(F)cc4)CC3)cc2o1` (configuration not stated), the AC50 was inconclusive: 31 µM.
With `Cc1nccn1-c1ccc(Sc2cccc(C3(C(N)=O)CCOCC3)c2)cc1` the AC50 was inconclusive: 55.6 µM.
In the case of `CCCCOC(=O)[C@@H](C)Oc1ccc(Oc2ccc(C(F)(F)F)cn2)cc1`, the AC50 is reported as inconclusive: 147 µM.
With `CCCCC(CC)C(=O)OCCOCCOCCOC(=O)C(CC)CCCC` (configuration not stated) the outcome was “inactive”.
In the case of `CCCCCCCCCCCCCCCCCC(=O)O`, the outcome is reported as “inactive”.
For `O=C(N[C@@H](c1ccccc1)[C@@H]1CCCCN1)c1cccc(C(F)(F)F)c1Cl`, the AC50 was inconclusive: 13.4 µM.
With `CC[C@H](c1ccc(O)cc1)[C@@H](CC)c1ccc(O)cc1` the AC50 was inconclusive: 184 µM.
In the case of `CCc1nc(N)nc(N)c1-c1ccc(Cl)cc1`, the AC50 is reported as inconclusive: 3.31 µM.
With `CCCCCCCCCCO` the AC50 was inconclusive: 8.52 µM.
With `CCOC(=O)O[C@H](C)OC(=O)c1ccc2c(c1)cc(C(=O)NC1CCN(C(C)C)CC1)n2Cc1cc(-c2ccc(Cl)s2)on1` the AC50 was inconclusive: 12.6 µM.
With `C[C@]12C[C@H](O)[C@H]3[C@@H](CCC4=CC(=O)CC[C@@]43C)[C@@H]1CC[C@@H]2C(=O)CO` the AC50 was inconclusive: 5.54 µM.
For `CCCCCCOCCO`, the outcome was “inactive”.
In the case of `Cc1c2ccccc2c(C)c2c1ccc1ccccc12`, the AC50 is reported as inconclusive: 9.03 µM.
For `CC(=O)CC(C)(C)O`, the AC50 was inconclusive: 16.1 µM.
